Results: PubChem BioAssay AID588590 (National Center for Advancing Translational Sciences (NCATS), 2011)
Among all 390,000 compounds or so, about 4,000 (1%) were called active. This list was built around the results that the source calls inconclusive (neither active nor inactive); the mix of calls is not that of the screen. Calls come from the whole dose curve; as a rule, active = well fitted inhibition curve with a large enough effect; inconclusive = small, poorly fitted or top-dose-only effect, or another doubt; inactive = no such curve, though single readings can be large or run the other way. Potencies of inconclusive entries are doubtful fits and often do not repeat.
Potency is the fitted concentration of half-maximal effect.

Amino acid sequences for entries named in this document (tags omitted). A change or cut given only in a name is not applied to a line headed by its entry.
UniProt Q9UNA4: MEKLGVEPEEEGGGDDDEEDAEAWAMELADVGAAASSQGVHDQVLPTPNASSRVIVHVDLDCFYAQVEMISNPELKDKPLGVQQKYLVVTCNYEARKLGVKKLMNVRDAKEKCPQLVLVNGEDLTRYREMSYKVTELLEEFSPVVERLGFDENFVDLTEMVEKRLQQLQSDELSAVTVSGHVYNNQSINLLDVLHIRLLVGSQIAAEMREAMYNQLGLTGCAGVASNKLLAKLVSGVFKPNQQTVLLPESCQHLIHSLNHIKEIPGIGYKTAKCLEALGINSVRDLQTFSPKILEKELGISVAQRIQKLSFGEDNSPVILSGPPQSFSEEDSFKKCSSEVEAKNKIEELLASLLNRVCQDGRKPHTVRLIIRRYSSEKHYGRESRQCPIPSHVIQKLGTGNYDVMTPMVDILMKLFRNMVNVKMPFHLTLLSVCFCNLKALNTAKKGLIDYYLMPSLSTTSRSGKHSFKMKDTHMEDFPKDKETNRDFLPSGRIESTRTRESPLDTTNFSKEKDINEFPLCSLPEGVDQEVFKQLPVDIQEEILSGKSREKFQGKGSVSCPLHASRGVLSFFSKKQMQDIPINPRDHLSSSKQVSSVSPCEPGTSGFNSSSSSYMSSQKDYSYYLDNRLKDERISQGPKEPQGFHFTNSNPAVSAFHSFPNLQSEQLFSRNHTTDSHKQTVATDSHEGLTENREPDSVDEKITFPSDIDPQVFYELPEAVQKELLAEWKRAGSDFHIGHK

What follows are compounds tested against DNA polymerase iota (Homo sapiens) (UniProt Q9UNA4) (assay: qHTS for Inhibitors of Polymerase Iota). Details: Pol iota fluorescent replication assay, 10 min; series mostly up to 115 µM; activity, negative = inhibition: at the top concentration.
In short: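 Fluorescent replication assay read twice, at 0 min and 10 min after adding 50 nM (final) substrate. Enzyme (10 nM) and compounds were first incubated 15 min at room temperature; enzyme-free buffer wells were negative controls.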
With CCc1cccc(NC(=O)C(CC(C)C)NS(=O)(=O)c2ccc3c(c2)oc(=O)n3C)c1 (centres undefined) the “activity, negative = inhibition” value was inactive: -5.27%.
COc1ccccc1OC(=O)CCc1nc2ccccc2s1 was tested, and the Potency was active: 15.8 µM.
With Oc1ccccc1-n1nc2ccc3nonc3c2n1 the “activity, negative = inhibition” value was inactive: -2.67%.
For CC(/C=N/NC(=O)c1nnn(-c2nonc2N)c1C(C)C)=C\c1ccco1, the Potency was inconclusive: 22.4 µM [inhibitor, full curve, poor fit].
For CN(C)c1cccc2ccccc12, the “activity, negative = inhibition” value was inactive: 14.8%.
C=C1C=CS(=O)(=O)N(C(C)C(=O)OC)C1 (centres undefined) was tested, and the Potency was inconclusive: 56.2 µM [inhibitor, partial curve, poor fit].
For Cc1ccc(S(=O)(=O)Cc2nc(-c3ccc(C(=O)NCc4ccccc4F)cc3)oc2C)cc1, the Potency was inconclusive: 79.4 µM [inhibitor, partial curve, poor fit].
With CCOC(=O)N1CCN(C(=O)CN(c2cc(C)ccc2OC)S(=O)(=O)c2ccc(C)cc2)CC1 the Potency was inconclusive: 89.1 µM [inhibitor, single point].
In the case of Cc1ccc(S(=O)(=O)NCC(=O)OCC(=O)Nc2ccc3c(c2)OCCO3)cc1, the “activity, negative = inhibition” value is reported as inactive: 39.9%.
In the case of CCC(C)NCCOc1cccc(Br)c1 (centres undefined), the “activity, negative = inhibition” value is reported as inactive: 20.8%.
For O=C(CNCc1ccco1)Nc1cccc(S(=O)(=O)N2CCCCC2)c1, the Potency was inconclusive: 10 µM [inhibitor, partial curve, poor fit].
For Cc1cncn1CCc1nc2c3ccccc3nc(SCC(=O)Nc3ccccc3F)n2n1, the Potency was inconclusive: 89.1 µM [inhibitor, single point].
For COc1ccccc1N1CCN(c2cc(C)nc3nc(-c4ccc(Cl)cc4)nn23)CC1, the Potency was inconclusive: 89.1 µM [inhibitor, single point].
With Cc1ccc(NC(=O)c2cc(S(=O)(=O)N3CCCC3)c[nH]2)c(C)c1 the Potency was inconclusive: 89.1 µM [inhibitor, single point].
In the case of COc1nc(-c2ccc(C)cc2)ccc1-c1noc(-c2ccc(C(C)(C)C)cc2)n1, the Potency is reported as inconclusive: 100 µM [inhibitor, single point].
Cc1ccc(NC(=O)COc2ccccc2C(N)=O)cc1S(=O)(=O)N1CCCCCC1 was tested, and the “activity, negative = inhibition” value was inactive: 15.3%.
In the case of CC1CCN(S(=O)(=O)c2nnc(NC(=O)c3cccc(F)c3)s2)CC1, the Potency is reported as inconclusive: 89.1 µM [inhibitor, partial curve, poor fit].
COc1ccccc1NC(=O)Cn1cncc1-c1ccc([N+](=O)[O-])cc1 was tested, and the Potency was inconclusive: 56.2 µM [inhibitor, partial curve, poor fit].
With C/C(CC(=O)Nc1cccc(Br)c1)=N\NC(=O)c1ccc(O)cc1O the Potency was inconclusive: 39.8 µM [inhibitor, partial curve, poor fit].
